{"source": "paper PMC12409219", "about": "(Diabetes, Obesity & Metabolism, 2025)", "assay": "general procedure: Fmoc solid-phase peptide synthesis; Rink Amide; DIPC/HOBt", "settings": "whole synthesis", "data": [{"substance": "HISHS-2001", "values": [{"measurement": "final purity (method not given)", "value": "above 98%"}]}]}
